Three molecules from doi:10.1101/2025.06.10.658938 (bioRxiv, 2025) can be followed below.

Sequences of proteins named here, by UniProt entry; tags and fusion partners are left off. Residues count along the entry.
UniProt Q16602, residues 23-461: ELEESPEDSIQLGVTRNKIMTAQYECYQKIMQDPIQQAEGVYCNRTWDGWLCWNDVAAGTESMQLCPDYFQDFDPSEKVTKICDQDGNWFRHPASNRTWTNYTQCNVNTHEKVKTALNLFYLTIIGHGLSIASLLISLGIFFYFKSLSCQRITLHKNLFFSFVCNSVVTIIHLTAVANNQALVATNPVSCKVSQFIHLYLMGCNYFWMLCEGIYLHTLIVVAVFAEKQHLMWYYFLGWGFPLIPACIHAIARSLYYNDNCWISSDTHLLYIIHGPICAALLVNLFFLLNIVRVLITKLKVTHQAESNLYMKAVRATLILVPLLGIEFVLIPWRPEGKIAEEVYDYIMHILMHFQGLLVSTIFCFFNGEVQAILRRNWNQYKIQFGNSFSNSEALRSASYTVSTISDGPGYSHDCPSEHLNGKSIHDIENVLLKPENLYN
UniProt P01732, residues 22-235: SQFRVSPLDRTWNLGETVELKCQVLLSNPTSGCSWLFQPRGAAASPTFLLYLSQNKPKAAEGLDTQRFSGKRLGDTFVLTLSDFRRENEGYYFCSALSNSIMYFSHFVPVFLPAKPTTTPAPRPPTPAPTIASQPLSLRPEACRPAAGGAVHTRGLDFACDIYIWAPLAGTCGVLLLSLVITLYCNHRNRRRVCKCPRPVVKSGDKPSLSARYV
UniProt Q07108, residues 3-199: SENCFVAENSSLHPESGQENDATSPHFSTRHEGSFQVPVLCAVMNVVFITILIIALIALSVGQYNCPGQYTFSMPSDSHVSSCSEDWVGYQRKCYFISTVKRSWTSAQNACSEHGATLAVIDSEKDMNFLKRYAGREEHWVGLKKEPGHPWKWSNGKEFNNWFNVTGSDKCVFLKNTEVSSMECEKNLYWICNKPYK

Assay in all cases: split reporter
The target of assay [1] is calcitonin-like receptor (CLR), smBit-tagged Target construct (UniProt Q16602).
Assay [2] shares this target. The source holds these as a separate data set.
For assay [3] the target is unchanged. This is another data set of the same source.
Assay [4] addresses T1, mouse erythropoietin receptor (EpoR), smBit-tagged Target construct (mouse) (UniProt P14753).
T1 sequence: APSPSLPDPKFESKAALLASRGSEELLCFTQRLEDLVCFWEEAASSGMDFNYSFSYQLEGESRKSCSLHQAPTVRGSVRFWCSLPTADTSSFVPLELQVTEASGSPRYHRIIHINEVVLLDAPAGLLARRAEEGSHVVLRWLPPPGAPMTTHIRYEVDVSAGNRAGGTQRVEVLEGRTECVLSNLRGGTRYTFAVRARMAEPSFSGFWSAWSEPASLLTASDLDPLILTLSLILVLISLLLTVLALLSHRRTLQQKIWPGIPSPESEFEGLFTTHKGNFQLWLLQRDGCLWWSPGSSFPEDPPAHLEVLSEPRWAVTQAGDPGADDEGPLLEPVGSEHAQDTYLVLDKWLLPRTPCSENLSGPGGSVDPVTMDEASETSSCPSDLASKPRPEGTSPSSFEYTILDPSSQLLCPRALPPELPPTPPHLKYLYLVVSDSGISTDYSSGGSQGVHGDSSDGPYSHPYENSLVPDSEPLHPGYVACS

Assay [5] concerns the target calcitonin-like receptor (CLR), smBit-tagged Target construct (UniProt Q16602). This is another data set of the same source.

Read-outs that look alike come from different tables or passages of the source. These are yes or no findings as the source states them, for the method shown. In cells and extracts the contact can be indirect. For some assays here: Tags and fused reporters may be left off the sequences shown.

For “CD8a, LgBit-tagged Binder construct (from UniProt P01732 22-235)”, the binding result in assay [1], in assay [2] and in assay [3] was “no binding” in each case.
For “CD69, LgBit-tagged Binder construct (wild type) (from UniProt Q07108 3-199)”, the binding result in assay [4] is listed as “no binding”.

B1: erythropoietin receptor (EpoR) used as LgBit-tagged non-specific Binder (receptor, UniProt P14753 25-507)
chain: T1 sequence
For the molecule B1, the binding entry in assay [5] was “no binding”.
